Values of other authors in US20260284010A1, “SOLID DISPERSION OF P2X4 INHIBITOR, AND PREPARATION METHOD THEREFOR AND USE THEREOF” (priority 2023, published 2026).
Some results were stated once for a whole list of compounds, not compound by compound.

Test system: P2X4
Conditions: as disclosed in WO2021104486A1, in words; cited from earlier work

Row | SMILES | Inhibitory activity against P2X4
1 | NS(=O)(=O)c1cc(NC(=O)Cc2ccccc2Cl)cc2nn(C(F)F)cc12 [compound 1] | high inhibitory activity against P2X4
2 | CC(C)n1cc2c(S(N)(=O)=O)cc(NC(=O)Cc3ccccc3Cl)cc2n1 [compound 9] | high inhibitory activity against P2X4
3 | CC(C)Cn1cc2c(S(N)(=O)=O)cc(NC(=O)Cc3ccccc3Cl)cc2n1 [compound 10] | high inhibitory activity against P2X4
4 | CC(C)Cn1ncc2c(S(N)(=O)=O)cc(NC(=O)Cc3ccccc3Cl)cc21 [compound 11] | high inhibitory activity against P2X4
5 | CC(C)CCn1cc2c(S(N)(=O)=O)cc(NC(=O)Cc3ccccc3Cl)cc2n1 [compound 12] | high inhibitory activity against P2X4
6 | CC(C)(C)n1cc2c(S(N)(=O)=O)cc(NC(=O)Cc3ccccc3Cl)cc2n1 [compound 14] | high inhibitory activity against P2X4
7 | NS(=O)(=O)c1cc(NC(=O)Cc2ccccc2Cl)cc2nn(CCF)cc12 [compound 15] | high inhibitory activity against P2X4
8 | NS(=O)(=O)c1cc(NC(=O)Cc2ccccc2Cl)cc2nn(CC(F)F)cc12 [compound 16] | high inhibitory activity against P2X4
9 | NS(=O)(=O)c1cc(NC(=O)Cc2ccccc2Cl)cc2c1cnn2CC(F)F [compound 17] | high inhibitory activity against P2X4
10 | NS(=O)(=O)c1cc(NC(=O)Cc2ccccc2Cl)cc2nn(C3CC3)cc12 [compound 18] | high inhibitory activity against P2X4
11 | NS(=O)(=O)c1cc(NC(=O)Cc2ccccc2Cl)cc2c1cnn2C1CC1 [compound 19] | high inhibitory activity against P2X4
12 | NS(=O)(=O)c1cc(NC(=O)Cc2ccccc2Cl)cc2nn(CC3CCC3)cc12 [compound 20] | high inhibitory activity against P2X4
13 | COCCn1ncc2c(S(N)(=O)=O)cc(NC(=O)Cc3ccccc3Cl)cc21 [compound 22] | high inhibitory activity against P2X4
14 | CC(C)OCCn1cc2c(S(N)(=O)=O)cc(NC(=O)Cc3ccccc3Cl)cc2n1 [compound 23] | high inhibitory activity against P2X4
15 | NS(=O)(=O)c1cc(NC(=O)Cc2ccccc2Cl)cc2nn(CC3CCCCC3)cc12 [compound 24] | high inhibitory activity against P2X4
16 | NS(=O)(=O)c1cc(NC(=O)Cc2ccccc2Cl)cc2nn(CCC3CC3)cc12 [compound 25] | high inhibitory activity against P2X4

Row | SMILES | Inhibitory activity against P2X4
17 | NS(=O)(=O)c1cc(NC(=O)Cc2ccccc2Cl)cc2c1cnn2-c1ccc(F)cc1 [compound 26] | high inhibitory activity against P2X4
18 | NS(=O)(=O)c1cc(NC(=O)Cc2ccccc2Cl)cc2cn(C(F)F)nc12 [compound 28] | high inhibitory activity against P2X4
19 | COc1ccc(Cn2cc3c(S(N)(=O)=O)cc(NC(=O)Cc4ccccc4Cl)cc3n2)cc1F [compound 30] | high inhibitory activity against P2X4
20 | COc1ccc(Cn2ncc3c(S(N)(=O)=O)cc(NC(=O)Cc4ccccc4Cl)cc32)c(F)c1 [compound 31] | high inhibitory activity against P2X4
21 | COc1ccc(Cn2cc3c(S(N)(=O)=O)cc(NC(=O)Cc4ccccc4Cl)cc3n2)c(F)c1 [compound 32] | high inhibitory activity against P2X4
22 | NS(=O)(=O)c1cc(NC(=O)Cc2ccccc2Cl)cc2c1cnn2Cc1ccc(F)cc1 [compound 36] | high inhibitory activity against P2X4
23 | NS(=O)(=O)c1cc(NC(=O)Cc2ccccc2Cl)cc2nn(Cc3ccc(Cl)cc3)cc12 [compound 37] | high inhibitory activity against P2X4
24 | NS(=O)(=O)c1cc(NC(=O)Cc2ccccc2Cl)cc2c1cnn2Cc1ccc(Cl)cc1 [compound 38] | high inhibitory activity against P2X4
25 | NS(=O)(=O)c1cc(NC(=O)Cc2ccccc2Cl)cc2nn(Cc3ccc(C(F)(F)F)cc3)cc12 [compound 39] | high inhibitory activity against P2X4
26 | NS(=O)(=O)c1cc(NC(=O)Cc2ccccc2Cl)cc2c1cnn2Cc1ccc(C(F)(F)F)cc1 [compound 40] | high inhibitory activity against P2X4
27 | N#Cc1ccc(Cn2cc3c(S(N)(=O)=O)cc(NC(=O)Cc4ccccc4Cl)cc3n2)cc1 [compound 41] | high inhibitory activity against P2X4
28 | N#Cc1ccc(Cn2ncc3c(S(N)(=O)=O)cc(NC(=O)Cc4ccccc4Cl)cc32)cc1 [compound 42] | high inhibitory activity against P2X4
29 | Cc1ccc(Cn2cc3c(S(N)(=O)=O)cc(NC(=O)Cc4ccccc4Cl)cc3n2)cc1 [compound 43] | high inhibitory activity against P2X4
30 | Cc1ccc(Cn2ncc3c(S(N)(=O)=O)cc(NC(=O)Cc4ccccc4Cl)cc32)cc1 [compound 44] | high inhibitory activity against P2X4
31 | Nc1ccc(Cn2ncc3c(S(N)(=O)=O)cc(NC(=O)Cc4ccccc4Cl)cc32)cc1 [compound 48] | high inhibitory activity against P2X4
